For at least one compound, name, drawing or mass did not settle the structure.
Key:
AcrAB-TolC mutants = assay: Killing of efflux mutants compared with wild-type (in words); type: cell-based, Escherichia coli; details: normal cells of ΔacrA, ΔacrB, ΔtolC
E. coli BW25113 = assay: Killing of normal cells of the wild-type strain; details: 100 μg/mL
[1] = system: E. coli HM22 normal cells; assay: Killing of normal (exponential phase) cells, CFU by drop plate; type: cell-based, Escherichia coli; details: for killing of normal cells (in words): concentration not given
[2] = system: E. coli HM22 persister cells; assay: Growth and CFU of treated persister cells during wake-up in LB; details: OD600 / growth
[3] = system: E. coli HM22 persister cells; type: cell-based, Escherichia coli; details: concentration not given

SMILES | killing of efflux mutants compared to the wild-type strain (in words) (AcrAB-TolC mutants) | killing of normal cells of the wild-type strain (in words) (E. coli BW25113) | normal cells killed ([1]; 100 μg/mL, 1 h in PBS) | killing of normal cells (in words) [1] | regrowth of treated persister cells after removal of extracellular antibiotic and adding LB (in words) [2] | killing of persister cells (in words) [3]
CN(C)c1ccc(O)c2c1C[C@H]1C[C@H]3[C@H](N(C)C)C(O)=C(C(N)=O)C(=O)[C@@]3(O)C(O)=C1C2=O [minocycline] | increased killing | no significant killing | no significant killing | ineffective | remained the same | –
CN(C)[C@@H]1C(O)=C(C(N)=O)C(=O)[C@@]2(O)C(O)=C3C(=O)c4c(O)cccc4[C@@](C)(O)[C@H]3C[C@@H]12 [tetracycline] | – | – | – | tolerant | – | tolerant
